Test results as given in the supplement of paper PMC10849652.
The other results are listed elsewhere or left out.

Sequences of proteins named here, by UniProt entry; tags and fusion partners are left off. A change or cut given only in a name is not applied to a line headed by its entry.
UniProt Q99755: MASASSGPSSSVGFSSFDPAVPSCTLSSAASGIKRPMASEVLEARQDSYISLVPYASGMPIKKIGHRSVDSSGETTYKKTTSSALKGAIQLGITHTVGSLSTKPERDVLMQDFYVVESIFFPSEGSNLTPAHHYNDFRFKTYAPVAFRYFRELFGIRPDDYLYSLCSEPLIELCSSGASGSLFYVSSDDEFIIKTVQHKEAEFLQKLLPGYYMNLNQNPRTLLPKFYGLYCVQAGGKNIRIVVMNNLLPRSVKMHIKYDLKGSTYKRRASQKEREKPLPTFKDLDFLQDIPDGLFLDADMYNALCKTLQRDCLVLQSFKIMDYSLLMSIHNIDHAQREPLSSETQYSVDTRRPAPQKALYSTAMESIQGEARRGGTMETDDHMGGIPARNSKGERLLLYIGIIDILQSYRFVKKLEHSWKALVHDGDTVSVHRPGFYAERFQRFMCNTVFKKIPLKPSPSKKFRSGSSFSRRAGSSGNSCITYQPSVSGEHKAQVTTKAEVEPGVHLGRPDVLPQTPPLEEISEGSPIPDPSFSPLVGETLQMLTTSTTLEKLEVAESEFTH
UniProt Q7RTV0, whole entry, looked up: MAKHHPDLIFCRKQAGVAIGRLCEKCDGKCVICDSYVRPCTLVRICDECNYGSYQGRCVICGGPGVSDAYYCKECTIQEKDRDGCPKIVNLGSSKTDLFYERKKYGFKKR
UniProt Q8NCC3: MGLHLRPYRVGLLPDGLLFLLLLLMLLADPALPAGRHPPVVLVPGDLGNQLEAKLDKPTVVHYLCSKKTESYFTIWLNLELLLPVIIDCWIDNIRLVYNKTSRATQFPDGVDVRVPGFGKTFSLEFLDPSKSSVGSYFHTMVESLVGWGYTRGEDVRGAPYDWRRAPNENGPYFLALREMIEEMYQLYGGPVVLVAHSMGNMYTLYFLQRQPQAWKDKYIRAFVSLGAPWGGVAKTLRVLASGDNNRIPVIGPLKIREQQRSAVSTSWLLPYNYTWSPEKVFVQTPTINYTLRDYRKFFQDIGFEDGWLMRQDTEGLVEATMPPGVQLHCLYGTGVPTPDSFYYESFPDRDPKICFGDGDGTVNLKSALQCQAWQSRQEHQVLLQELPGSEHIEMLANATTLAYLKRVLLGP
UniProt Q8IV08: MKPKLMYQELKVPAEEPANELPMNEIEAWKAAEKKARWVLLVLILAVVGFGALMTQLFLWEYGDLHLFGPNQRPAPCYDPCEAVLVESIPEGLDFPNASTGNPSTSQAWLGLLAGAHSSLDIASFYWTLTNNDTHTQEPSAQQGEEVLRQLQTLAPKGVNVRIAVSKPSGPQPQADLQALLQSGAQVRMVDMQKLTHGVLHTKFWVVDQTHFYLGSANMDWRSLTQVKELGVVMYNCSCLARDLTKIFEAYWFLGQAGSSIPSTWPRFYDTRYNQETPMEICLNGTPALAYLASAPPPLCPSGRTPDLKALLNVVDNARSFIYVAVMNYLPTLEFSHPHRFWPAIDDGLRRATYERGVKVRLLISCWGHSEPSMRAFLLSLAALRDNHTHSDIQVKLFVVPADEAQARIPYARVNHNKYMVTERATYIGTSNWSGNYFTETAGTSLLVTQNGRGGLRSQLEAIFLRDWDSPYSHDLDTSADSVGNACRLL
UniProt P42338: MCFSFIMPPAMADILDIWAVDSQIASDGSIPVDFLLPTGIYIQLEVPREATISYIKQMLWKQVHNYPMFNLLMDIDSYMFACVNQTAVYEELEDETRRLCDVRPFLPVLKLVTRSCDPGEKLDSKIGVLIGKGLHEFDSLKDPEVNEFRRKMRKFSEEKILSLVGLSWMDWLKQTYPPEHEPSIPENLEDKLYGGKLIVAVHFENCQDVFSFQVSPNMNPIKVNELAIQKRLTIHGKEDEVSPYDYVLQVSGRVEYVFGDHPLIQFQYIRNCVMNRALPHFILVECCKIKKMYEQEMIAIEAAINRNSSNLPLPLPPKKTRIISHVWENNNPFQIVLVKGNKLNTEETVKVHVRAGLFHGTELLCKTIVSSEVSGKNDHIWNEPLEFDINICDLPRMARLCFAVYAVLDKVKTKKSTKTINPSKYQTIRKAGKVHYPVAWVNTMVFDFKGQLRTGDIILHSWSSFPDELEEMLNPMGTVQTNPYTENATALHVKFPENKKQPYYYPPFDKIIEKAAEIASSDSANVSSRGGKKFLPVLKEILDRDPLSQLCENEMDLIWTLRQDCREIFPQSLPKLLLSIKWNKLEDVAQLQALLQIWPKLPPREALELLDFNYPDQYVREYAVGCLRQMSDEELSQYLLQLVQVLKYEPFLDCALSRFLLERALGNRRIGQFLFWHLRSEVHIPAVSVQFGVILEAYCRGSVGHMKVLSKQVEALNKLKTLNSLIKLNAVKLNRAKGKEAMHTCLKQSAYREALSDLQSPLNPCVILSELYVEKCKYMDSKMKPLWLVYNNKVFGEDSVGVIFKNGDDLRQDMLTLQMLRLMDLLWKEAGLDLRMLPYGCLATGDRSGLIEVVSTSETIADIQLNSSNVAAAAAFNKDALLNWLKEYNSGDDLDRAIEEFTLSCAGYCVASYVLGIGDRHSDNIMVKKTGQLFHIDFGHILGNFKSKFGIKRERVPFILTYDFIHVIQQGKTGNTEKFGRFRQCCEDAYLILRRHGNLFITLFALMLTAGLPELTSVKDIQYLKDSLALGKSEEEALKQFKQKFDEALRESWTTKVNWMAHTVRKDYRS
UniProt O15067: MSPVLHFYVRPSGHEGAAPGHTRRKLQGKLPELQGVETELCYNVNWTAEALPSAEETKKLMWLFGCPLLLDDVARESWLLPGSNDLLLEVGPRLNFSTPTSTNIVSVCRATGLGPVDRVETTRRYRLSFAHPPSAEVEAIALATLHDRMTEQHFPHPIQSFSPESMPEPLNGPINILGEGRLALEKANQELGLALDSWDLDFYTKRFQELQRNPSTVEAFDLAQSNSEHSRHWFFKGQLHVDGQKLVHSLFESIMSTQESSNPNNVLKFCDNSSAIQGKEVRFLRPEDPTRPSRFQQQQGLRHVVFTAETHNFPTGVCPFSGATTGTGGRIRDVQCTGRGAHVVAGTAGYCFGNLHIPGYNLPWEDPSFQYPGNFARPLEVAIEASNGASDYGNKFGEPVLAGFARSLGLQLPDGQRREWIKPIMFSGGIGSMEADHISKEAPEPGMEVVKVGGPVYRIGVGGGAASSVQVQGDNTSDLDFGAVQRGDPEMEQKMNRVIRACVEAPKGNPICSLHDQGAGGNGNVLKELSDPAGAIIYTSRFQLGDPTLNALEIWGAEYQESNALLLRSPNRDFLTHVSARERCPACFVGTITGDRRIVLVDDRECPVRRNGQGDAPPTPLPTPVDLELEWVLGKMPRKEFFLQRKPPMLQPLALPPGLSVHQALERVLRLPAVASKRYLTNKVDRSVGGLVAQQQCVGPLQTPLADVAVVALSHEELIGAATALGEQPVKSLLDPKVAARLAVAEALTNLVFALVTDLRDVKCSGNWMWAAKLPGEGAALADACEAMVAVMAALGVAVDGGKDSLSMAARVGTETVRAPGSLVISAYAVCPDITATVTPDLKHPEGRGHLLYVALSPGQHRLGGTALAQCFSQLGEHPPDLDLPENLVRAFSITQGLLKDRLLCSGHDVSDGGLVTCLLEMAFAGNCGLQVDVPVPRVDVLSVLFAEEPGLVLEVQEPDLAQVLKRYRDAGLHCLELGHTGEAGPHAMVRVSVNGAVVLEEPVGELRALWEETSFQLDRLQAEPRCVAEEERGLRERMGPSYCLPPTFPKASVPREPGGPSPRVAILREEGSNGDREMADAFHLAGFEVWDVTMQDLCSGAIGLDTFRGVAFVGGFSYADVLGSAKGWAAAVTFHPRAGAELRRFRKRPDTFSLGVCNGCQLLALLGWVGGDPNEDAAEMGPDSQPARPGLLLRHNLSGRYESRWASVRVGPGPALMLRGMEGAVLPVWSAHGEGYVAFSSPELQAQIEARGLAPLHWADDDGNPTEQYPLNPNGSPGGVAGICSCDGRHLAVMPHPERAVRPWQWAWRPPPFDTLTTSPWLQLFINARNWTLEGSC
UniProt Q8NEB9, whole entry, looked up: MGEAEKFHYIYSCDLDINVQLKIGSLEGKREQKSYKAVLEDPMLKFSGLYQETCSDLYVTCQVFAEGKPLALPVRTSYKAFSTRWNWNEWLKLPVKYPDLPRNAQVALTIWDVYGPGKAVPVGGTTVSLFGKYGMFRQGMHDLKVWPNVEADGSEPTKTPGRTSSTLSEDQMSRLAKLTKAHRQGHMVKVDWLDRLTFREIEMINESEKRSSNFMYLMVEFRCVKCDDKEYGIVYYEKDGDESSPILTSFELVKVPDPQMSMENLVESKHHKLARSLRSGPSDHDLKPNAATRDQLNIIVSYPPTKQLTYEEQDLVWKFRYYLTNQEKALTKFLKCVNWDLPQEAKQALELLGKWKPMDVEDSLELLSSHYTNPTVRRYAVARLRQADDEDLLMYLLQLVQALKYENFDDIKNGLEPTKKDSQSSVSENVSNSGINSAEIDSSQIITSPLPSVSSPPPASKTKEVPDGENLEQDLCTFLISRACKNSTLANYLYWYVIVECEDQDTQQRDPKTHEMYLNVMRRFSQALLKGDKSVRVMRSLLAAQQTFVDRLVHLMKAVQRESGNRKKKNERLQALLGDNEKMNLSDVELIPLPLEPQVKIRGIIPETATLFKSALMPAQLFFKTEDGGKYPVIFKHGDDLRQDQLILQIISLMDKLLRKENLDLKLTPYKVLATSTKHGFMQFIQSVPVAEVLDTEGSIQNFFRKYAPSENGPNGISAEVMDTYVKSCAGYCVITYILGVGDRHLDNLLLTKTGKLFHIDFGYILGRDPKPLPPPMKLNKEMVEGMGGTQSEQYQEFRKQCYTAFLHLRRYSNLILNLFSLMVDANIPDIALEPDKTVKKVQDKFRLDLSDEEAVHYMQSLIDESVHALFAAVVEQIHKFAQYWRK
UniProt Q9Y5Y5: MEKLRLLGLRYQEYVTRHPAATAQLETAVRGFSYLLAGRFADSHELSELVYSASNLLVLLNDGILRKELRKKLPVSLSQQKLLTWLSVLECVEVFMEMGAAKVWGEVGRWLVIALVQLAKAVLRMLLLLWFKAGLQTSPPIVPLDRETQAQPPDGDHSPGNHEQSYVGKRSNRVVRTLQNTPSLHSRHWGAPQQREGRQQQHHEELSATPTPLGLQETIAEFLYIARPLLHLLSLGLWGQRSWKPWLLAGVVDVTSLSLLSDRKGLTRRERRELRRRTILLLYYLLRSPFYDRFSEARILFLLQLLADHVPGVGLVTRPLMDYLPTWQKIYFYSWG
UniProt Q8TBX8: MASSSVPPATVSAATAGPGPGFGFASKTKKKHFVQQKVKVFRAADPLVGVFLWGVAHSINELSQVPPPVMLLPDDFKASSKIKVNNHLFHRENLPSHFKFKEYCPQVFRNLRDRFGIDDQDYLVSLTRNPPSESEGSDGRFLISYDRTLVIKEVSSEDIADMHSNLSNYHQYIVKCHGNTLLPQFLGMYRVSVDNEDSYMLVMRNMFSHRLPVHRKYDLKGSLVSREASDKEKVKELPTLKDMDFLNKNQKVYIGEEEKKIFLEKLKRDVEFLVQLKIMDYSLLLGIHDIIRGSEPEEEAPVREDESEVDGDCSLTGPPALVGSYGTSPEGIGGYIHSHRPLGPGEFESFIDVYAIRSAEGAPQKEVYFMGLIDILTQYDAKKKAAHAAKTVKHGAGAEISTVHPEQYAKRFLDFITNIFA
UniProt Q8WUB8: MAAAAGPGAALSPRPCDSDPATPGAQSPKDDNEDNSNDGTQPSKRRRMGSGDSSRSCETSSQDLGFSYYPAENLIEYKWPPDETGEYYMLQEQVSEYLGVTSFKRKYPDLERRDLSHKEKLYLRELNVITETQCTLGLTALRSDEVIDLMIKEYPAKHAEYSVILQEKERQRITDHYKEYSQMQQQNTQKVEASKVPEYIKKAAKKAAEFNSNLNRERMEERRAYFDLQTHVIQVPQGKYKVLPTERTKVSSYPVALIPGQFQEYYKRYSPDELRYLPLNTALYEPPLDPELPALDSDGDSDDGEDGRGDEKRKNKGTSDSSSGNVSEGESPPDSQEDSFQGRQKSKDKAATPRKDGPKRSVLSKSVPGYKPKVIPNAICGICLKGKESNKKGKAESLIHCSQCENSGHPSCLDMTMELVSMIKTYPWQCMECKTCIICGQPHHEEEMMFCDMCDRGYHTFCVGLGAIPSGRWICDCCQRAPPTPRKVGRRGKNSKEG
UniProt Q9H814, whole entry, looked up: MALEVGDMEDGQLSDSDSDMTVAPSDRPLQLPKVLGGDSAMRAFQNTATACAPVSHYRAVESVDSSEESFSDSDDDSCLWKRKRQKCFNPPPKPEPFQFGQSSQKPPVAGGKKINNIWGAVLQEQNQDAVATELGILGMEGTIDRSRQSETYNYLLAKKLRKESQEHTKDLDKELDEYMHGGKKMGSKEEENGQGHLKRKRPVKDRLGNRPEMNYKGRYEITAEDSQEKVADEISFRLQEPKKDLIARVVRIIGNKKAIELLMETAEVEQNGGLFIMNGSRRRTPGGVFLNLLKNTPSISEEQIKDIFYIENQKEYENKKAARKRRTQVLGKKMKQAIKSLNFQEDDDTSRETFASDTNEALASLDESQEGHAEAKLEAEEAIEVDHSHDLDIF

Experiments:
Experiment in all cases: log2 fold change, soluble protein after heating vs DMSO (PISA); higher = thermal stabilisation; K562 cells, 10 uM, 30 min; active = over 0.2 and 3.5 SD of the protein, either way, in both replicates (recomputed)
[1] = compound: CC[C@@H]1C(=O)N(C)c2cnc(Nc3ccc(C(=O)NC4CCN(C)CC4)cc3OC)nc2N1C1CCCC1
How it was run: (§1)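 K562 cells (2×10^6 cells/mL) were treated with 10 μM compound for 30 min, and aliquots were heated for 3 min over 48°C-58°C. Pooled aliquots were extracted in PBS with 0.5% NP-40 at 4°C, and the supernatant after 21,000xg for 90 min was measured by TMTpro 16plex LC-MS/MS with channel sums equalised. Reported thermal stability, relative to control samples and from duplicates, is a log2 fold change.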

volasertib = compound: CC[C@@H]1C(=O)N(C)c2cnc(Nc3ccc(C(=O)N[C@H]4CC[C@H](N5CCN(CC6CC6)CC5)CC4)cc3OC)nc2N1C(C)C [volasertib]
How it was run: as §1

[2] = compound: CC[C@H](C)N1C=C(C2=C(C=C(C=C21)C3=CN=C(C=C3)N4CCNCC4)C(=O)NCC5=C(C=C(NC5=O)C)C)C
How it was run: as §1

epoxomicin = compound: CC[C@H](C)[C@@H](C(=O)N[C@@H]([C@@H](C)O)C(=O)N[C@@H](CC(C)C)C(=O)[C@]1(CO1)C)NC(=O)[C@H]([C@@H](C)CC)N(C)C(=O)C [epoxomicin]
How it was run: as §1

[3] = compound: CCn1cc(-c2ccnc3[nH]c(-c4cccc(CN(C)C)c4)cc23)c(-c2ccc(NC(=O)N(C)C)cc2)n1
How it was run: as §1

[4] = compound: CN(C)CC(=O)Nc1ccc2[nH]c(=O)c3ccccc3c2c1
How it was run: as §1

rosiglitazone = compound: CN(CCOC1=CC=C(C=C1)C[C@H]2C(=O)NC(=O)S2)C3=CC=CC=N3 (racemic) [rosiglitazone]
How it was run: as §1

[5] = compound: CN1C2=C(C3=C1C(=O)N(N=C3)CC4=CC(=CC=C4)N)SC(=C2)S(=O)C
How it was run: as §1

[6] = compound: CN1CCC(CNc2ccc3ncc(-c4cccc(OC(F)(F)F)c4)n3n2)CC1
How it was run: as §1

saracatinib = compound: CN1CCN(CCOc2cc(OC3CCOCC3)c3c(Nc4c(Cl)ccc5c4OCO5)ncnc3c2)CC1 [saracatinib]
How it was run: as §1

sotrastaurin = compound: CN1CCN(c2nc(C3=C(c4c[nH]c5ccccc45)C(=O)NC3=O)c3ccccc3n2)CC1 [sotrastaurin]
How it was run: as §1

alvocidib = compound: CN1CC[C@H](c2c(O)cc(O)c3c(=O)cc(-c4ccccc4Cl)oc23)[C@H](O)C1 [alvocidib]
How it was run: as §1

Tubastatin A = compound: CN1CCc2c(c3ccccc3n2Cc2ccc(C(=O)NO)cc2)C1 [Tubastatin A]
How it was run: as §1

defactinib = compound: CNC(=O)c1ccc(Nc2ncc(C(F)(F)F)c(NCc3nccnc3N(C)S(C)(=O)=O)n2)cc1 [defactinib]
How it was run: as §1

rucaparib = compound: CNCc1ccc(-c2[nH]c3cc(F)cc4c3c2CCNC4=O)cc1 [rucaparib]
How it was run: as §1

[7] = compound: CNc1nc(-c2ccc3c(N)n[nH]c3c2)cc(N2C[C@@H](C(=O)NC3CCCCC3)CC[C@H]2C)n1
How it was run: as §1

encorafenib = compound: COC(=O)N[C@@H](C)CNc1nccc(-c2cn(C(C)C)nc2-c2cc(Cl)cc(NS(C)(=O)=O)c2F)n1 [encorafenib]
How it was run: as §1

[8] = compound: COC(=O)[C@H](CCSC)NC(=O)C1=C(C=C(C=C1)NC[C@H](CS)N)C2=CC=CC=C2
How it was run: as §1

[9] = compound: CNC(=O)C1=CC=CC=C1NC2=NC(=NC=C2Cl)NC3=C(C=C(C=C3)N4CCOCC4)OC
How it was run: as §1

[10] = compound: CCn1c(C(=O)N(C2CC2)C2CC2)cc2c3c(ncn3C)c(Nc3cc(C)n(C)n3)nc21
How it was run: as §1

Measured: log2 fold change

PIP5K1A (UniProt Q99755)
inactive: [1] 0.063 | volasertib 0.283 | [2] 0.044 | epoxomicin -0.024 | [3] 0.03 | [4] -0.159 | rosiglitazone -0.045 | [5] 0.154 | [6] -0.233 | saracatinib -0.125 | sotrastaurin -0.228 | alvocidib 0.039 | Tubastatin A 0.047 | defactinib 0.163 | rucaparib 0.119 | [7] -0.04 | encorafenib 0.038 | [8] 0.09

PHF5A (UniProt Q7RTV0)
inactive: [1] 0.013 | volasertib 0.065 | [2] -0.061 | epoxomicin 0.051 | [3] 0.087 | [4] -0.063 | [5] -0.017 | [6] 0.017 | saracatinib 0.069 | sotrastaurin 0.047 | Tubastatin A -0.027 | [9] 0.05 | defactinib 0.141 | rucaparib 0.04 | [7] -0.086 | encorafenib -0.017 | [8] 0.023

PISD (UniProt Q9UG56)
inactive: [1] -0.136 | volasertib -0.117 | [2] -0.017 | epoxomicin -0.002 | [3] -0.076 | [4] -0.113 | [5] -0.036 | [6] -0.192 | saracatinib -0.095 | sotrastaurin 0.061 | Tubastatin A 0.019 | [9] 0.026 | defactinib -0.054 | rucaparib 0.06 | encorafenib 0.063 | [8] 0.028
active: [7] 0.252

PLA2G15 (UniProt Q8NCC3)
inactive: [1] -0.084 | volasertib -0.166 | [2] 0.026 | epoxomicin 0.01 | [3] 0.005 | [4] 0.006 | [5] 0.043 | [6] -0.076 | saracatinib -0.052 | sotrastaurin -0.095 | Tubastatin A 0.036 | [9] 0.065 | defactinib 0.012 | rucaparib -0.064 | [7] -0.036 | encorafenib 0.176 | [8] -0.018

PHKG2 (UniProt P15735)
inactive: [1] -0.155 | volasertib -0.195 | [2] 0.054 | epoxomicin -0.004 | [3] 0.043 | [4] -0.002 | [5] -0.027 | [6] -0.156 | saracatinib 0.002 | sotrastaurin -0.071 | Tubastatin A 0.029 | [9] 0.167 | defactinib 0.026 | rucaparib -0.032 | [7] 0.1 | encorafenib 0.181 | [8] -0.025

PLD3 (UniProt Q8IV08)
inactive: [2] -0.038 | epoxomicin 0.041 | [3] 0.035 | [4] 0.014 | [5] -0.027 | saracatinib 0.034 | sotrastaurin 0.013 | Tubastatin A 0.004 | [9] 0.016 | defactinib -0.005 | rucaparib -0.094 | [7] -0.037 | encorafenib 0.007 | [8] 0.009
active: [1] -0.369 | volasertib -0.437 | [6] -0.488

PHKA2 (UniProt P46019)
inactive: [1] -0.049 | volasertib -0.094 | [2] -0.174 | epoxomicin 0.071 | [3] -0.029 | [4] 0.01 | [5] -0.002 | saracatinib 0.032 | sotrastaurin -0.085 | Tubastatin A -0.021 | [9] 0.135 | defactinib 0.012 | rucaparib -0.063 | [7] -0.009 | encorafenib -0.022 | [8] -0.03
active: [6] -0.35

PGGT1B (UniProt P53609)
inactive: [1] 0.056 | volasertib 0.098 | [2] 0.004 | epoxomicin -0.011 | [3] -0.026 | [4] -0.009 | [5] -0.101 | [6] -0.008 | saracatinib 0 | sotrastaurin 0.121 | Tubastatin A -0.047 | [9] -0.025 | defactinib 0.001 | rucaparib -0.032 | [7] -0.017 | encorafenib 0.013
active: [8] 0.227

PEX7 (UniProt O00628)
inactive: [1] 0.038 | volasertib 0.005 | [2] -0.027 | epoxomicin 0.075 | [3] -0.01 | [4] 0.091 | [5] -0.067 | [6] 0.023 | saracatinib 0.045 | sotrastaurin 0.06 | Tubastatin A 0.061 | [9] 0.005 | defactinib -0.005 | rucaparib -0.047 | [7] 0.03 | encorafenib -0.023 | [8] -0.039

PIK3CB (UniProt P42338)
inactive: [1] 0.017 | [2] 0.082 | epoxomicin 0.033 | [3] -0.071 | [4] 0.008 | [5] 0.003 | [6] 0.175 | saracatinib -0.019 | sotrastaurin 0.01 | Tubastatin A 0.001 | [9] -0.011 | defactinib -0.04 | rucaparib 0.014 | [7] 0.042 | encorafenib -0.015 | [8] -0.003
active: volasertib -0.224

PFAS (UniProt O15067)
inactive: [1] -0.04 | volasertib -0.124 | [2] 0.113 | epoxomicin -0.016 | [3] -0.069 | [4] 0.031 | [5] -0.241 | [6] -0.001 | saracatinib -0.043 | sotrastaurin 0 | Tubastatin A 0.046 | defactinib -0.029 | rucaparib 0 | [7] 0.251 | encorafenib 0.011 | [8] -0.075
active: [9] -0.324

Reprinted at random: 2 records from the list.
PHKA2 (UniProt P46019)
inactive: [1] -0.049 | volasertib -0.094 | [2] -0.174 | epoxomicin 0.071 | [3] -0.029 | [4] 0.01 | [5] -0.002 | saracatinib 0.032 | sotrastaurin -0.085 | Tubastatin A -0.021 | [9] 0.135 | defactinib 0.012 | rucaparib -0.063 | [7] -0.009 | encorafenib -0.022 | [8] -0.03
active: [6] -0.35

PFAS (UniProt O15067)
inactive: [1] -0.04 | volasertib -0.124 | [2] 0.113 | epoxomicin -0.016 | [3] -0.069 | [4] 0.031 | [5] -0.241 | [6] -0.001 | saracatinib -0.043 | sotrastaurin 0 | Tubastatin A 0.046 | defactinib -0.029 | rucaparib 0 | [7] 0.251 | encorafenib 0.011 | [8] -0.075
active: [9] -0.324

(next part)

PIK3C3 (UniProt Q8NEB9)
inactive: [1] 0.16 | volasertib 0.153 | [2] 0.023 | epoxomicin -0.071 | [3] -0.117 | [4] -0.03 | [5] 0.025 | [6] 0.015 | saracatinib -0.007 | sotrastaurin -0.039 | Tubastatin A 0.027 | [9] -0.003 | defactinib -0.012 | rucaparib 0.25 | [7] 0.002 | encorafenib 0.05 | [8] -0.018

PEX16 isoform 2 (UniProt Q9Y5Y5)
inactive: [1] -0.065 | volasertib -0.138 | [2] -0.013 | epoxomicin -0.024 | [3] 0.033 | [4] 0.013 | [5] -0.127 | [6] -0.124 | saracatinib 0.038 | sotrastaurin -0.02 | Tubastatin A 0.021 | [9] -0.053 | defactinib -0.106 | rucaparib 0.042 | [7] -0.04 | encorafenib 0.001 | [8] 0.05

PIGG (UniProt Q5H8A4)
inactive: [1] -0.062 | volasertib 0.022 | [2] 0.037 | epoxomicin -0.017 | [3] -0.022 | [4] 0.009 | [5] -0.04 | [6] 0.093 | saracatinib -0.02 | sotrastaurin -0.015 | Tubastatin A -0.037 | [9] 0.013 | defactinib 0.175 | rucaparib -0.013 | encorafenib 0.07 | [8] -0.057
active: [7] 0.27

PIP4K2C (UniProt Q8TBX8)
inactive: [2] -0.096 | epoxomicin -0.022 | [3] 0.05 | [4] -0.016 | [5] 0.699 | [6] 0.384 | saracatinib -0.049 | sotrastaurin -0.035 | Tubastatin A 0.133 | [9] 0.371 | defactinib 0.527 | rucaparib 0.011 | [7] -0.042 | encorafenib 0.051 | [8] -0.113
active: [1] 1.12 | volasertib 1.19

PIGM (UniProt Q9H3S5)
inactive: [1] -0.267 | [2] -0.07 | [10] -0.047 | [4] -0.244 | rosiglitazone -0.063 | [5] 0.034 | saracatinib -0.064 | sotrastaurin -0.023 | alvocidib 0.047 | [9] -0.043 | defactinib 0.124 | rucaparib -0.012 | [7] 0.159 | encorafenib 0.292 | [8] 0.103

PLBD2 (UniProt Q8NHP8)
inactive: [1] -0.188 | [2] -0.034 | epoxomicin -0.015 | [3] 0.029 | [4] 0.008 | [5] -0.029 | [6] -0.21 | saracatinib 0.033 | sotrastaurin 0.031 | Tubastatin A 0.01 | [9] 0.029 | defactinib -0.025 | rucaparib -0.115 | [7] -0.008 | encorafenib 0.005 | [8] 0.038
active: volasertib -0.222

PHF10 (UniProt Q8WUB8)
inactive: [1] 0.059 | volasertib -0.234 | epoxomicin -0.11 | [10] 0.013 | [3] -0.049 | [4] 0.052 | rosiglitazone -0.021 | [5] -0.106 | [6] -0.045 | saracatinib 0.041 | sotrastaurin 0.054 | alvocidib -0.163 | Tubastatin A -0.093 | [9] 0.225 | defactinib -0.044 | rucaparib 0.067 | [7] -0.107 | encorafenib -0.086 | [8] -0.001

PHAX (UniProt Q9H814)
inactive: [1] -0.03 | volasertib -0.106 | [2] 0.027 | epoxomicin -0.041 | [3] 0.111 | [4] 0.011 | [5] -0.054 | [6] 0.042 | saracatinib 0.013 | sotrastaurin 0.001 | Tubastatin A 0.003 | [9] -0.028 | defactinib -0.138 | rucaparib -0.031 | [7] -0.037 | encorafenib -0.034 | [8] 0.037
